The target of the test is T1, endogenous Fndc5 (human (endogenous in HepG2)) (UniProt Q8NAU1).
T1 sequence: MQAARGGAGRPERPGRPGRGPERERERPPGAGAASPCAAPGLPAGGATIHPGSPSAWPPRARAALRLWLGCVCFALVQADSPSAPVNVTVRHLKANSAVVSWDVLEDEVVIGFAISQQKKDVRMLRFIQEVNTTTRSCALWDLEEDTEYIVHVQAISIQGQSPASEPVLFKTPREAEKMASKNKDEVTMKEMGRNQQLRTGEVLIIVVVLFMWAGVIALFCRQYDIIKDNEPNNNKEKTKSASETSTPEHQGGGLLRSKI
Put plainly: co-IP; endogenous proteins in HepG2 cells; lysis in radioimmunoprecipitation assay buffer, protein A/G-agarose beads, immunoblotting; normal IgG as control. Background: A western blot detects proteins with antibodies after separation by electrophoresis.

Here are results for 1 molecule from paper PMC7977447.

Results are given in words; binding and its absence hold for the method and conditions named. Binding seen in cells or lysates may run through a third protein. Some binding calls cover weakened binding; strength is not graded here.

B1: endogenous SIRT2 (enzyme, UniProt Q8IXJ6 1-389)
chain: MAEPDPSHPLETQAGKVQEAQDSDSDSEGGAAGGEADMDFLRNLFSQTLSLGSQKERLLDELTLEGVARYMQSERCRRVICLVGAGISTSAGIPDFRSPSTGLYDNLEKYHLPYPEAIFEISYFKKHPEPFFALAKELYPGQFKPTICHYFMRLLKDKGLLLRCYTQNIDTLERIAGLEQEDLVEAHGTFYTSHCVSASCRHEYPLSWMKEKIFSEVTPKCEDCQSLVKPDIVFFGESLPARFFSCMQSDFLKVDLLLVMGTSLQVQPFASLISKAPLSTPRLLINKEKAGQSDPFLGMIMGLGGGMDFDSKKAYRDVAWLGECDQGCLALAELLGWKKELEDLVRREHASIDAQSGAGVPNPSTSASPKKSPPPAKDEARTTEREKPQ
In the case of B1, the binding result is given as “binds”.
